Assay [1] has as its target TAP-Kv4.2 (human) (UniProt Q9NZV8). Kind of assay: affinity purification with mass spectrometry; TAP-Kv4.2 expressed by lentivirus in rat hippocampal neurons, harvested at DIV14; weak lysis buffer of the kit (0.1% NP-40); streptavidin resin, then calmodulin resin; gel cut into high and low molecular weight fragments; no MS of the control sample.
The target is the same in assay [2]. The assay is described as follows: affinity purification with mass spectrometry; TAP-Kv4.2 expressed by lentivirus in rat hippocampal neurons, harvested at DIV14; strong lysis buffer (1% Triton X-100, 0.5% deoxycholate in PBS, pH 7.4); streptavidin resin, then calmodulin resin; gel cut into high and low molecular weight fragments; no MS of the control sample.

Protein sequences, listed by entry. Tags and fused reporters are not part of them.
UniProt Q9NZV8: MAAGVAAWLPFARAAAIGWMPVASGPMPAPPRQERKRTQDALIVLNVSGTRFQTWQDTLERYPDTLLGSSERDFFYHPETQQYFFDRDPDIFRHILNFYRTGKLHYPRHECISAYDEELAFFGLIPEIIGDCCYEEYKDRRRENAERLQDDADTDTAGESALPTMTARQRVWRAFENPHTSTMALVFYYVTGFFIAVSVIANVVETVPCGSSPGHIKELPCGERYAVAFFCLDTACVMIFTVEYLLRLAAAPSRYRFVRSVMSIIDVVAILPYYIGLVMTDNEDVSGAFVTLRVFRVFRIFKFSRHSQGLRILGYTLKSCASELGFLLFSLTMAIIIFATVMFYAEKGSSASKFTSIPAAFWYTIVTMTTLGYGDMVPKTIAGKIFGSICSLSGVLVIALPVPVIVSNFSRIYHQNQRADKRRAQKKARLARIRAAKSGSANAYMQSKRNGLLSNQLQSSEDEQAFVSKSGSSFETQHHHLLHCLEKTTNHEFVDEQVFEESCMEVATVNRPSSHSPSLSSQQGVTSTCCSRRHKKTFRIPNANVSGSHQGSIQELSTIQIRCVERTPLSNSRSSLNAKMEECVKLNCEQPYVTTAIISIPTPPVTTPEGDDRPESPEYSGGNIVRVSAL

No constants are given. Whether binding was seen depends on the method and setting. In cells and extracts the contact can be indirect. Here binding means that the protein was enriched with, or labelled near, the bait; the list need not be complete.

B1: Stmn2 (protein, UniProt P21818 1-179)
chain: MAKTAMAYKEKMKELSMLSLICSCFYPEPRNINIYTYDDMEVKQINKRASGQAFELILKPPSPISEAPRTLASPKKKDLSLEEIQKKLEAAEGRRKSQEAQVLKQLAEKREHEREVLQKALEENNNFSKMAEEKLILKMEQIKENREANLAAIIERLQEKERHAAEVRRNKELQVELSG
Take B1: the binding result in assay [1] and in assay [2] was “binds” in each case.

B2: Rala (protein, UniProt P63322 1-206)
chain: MAANKPKGQNSLALHKVIMVGSGGVGKSALTLQFMYDEFVEDYEPTKADSYRKKVVLDGEEVQIDILDTAGQEDYAAIRDNYFRSGEGFLCVFSITEMESFAATADFREQILRVKEDENVPFLLVGNKSDLEDKRQVSVEEAKNRADQWNVNYVETSAKTRANVDKVFFDLMREIRARKMEDSKEKNGKKKRKSLAKRIRERCCIL
As for B2, the binding entry in assay [1] and in assay [2] was “binds” in each case.

B3: KChIP4 (protein, UniProt Q99MG9 1-250)
chain: MNVRRVESISAQLEEASSTGGFLYAQNNTKRSIKERLMKLLPCSAAKTSSPAIQNSVEDELEMATVRHRPEALELLEAQSKFTKKELQILYRGFKNECPSGVVNEETFKEIYSQFFPQGDSTTYAHFLFNAFDTDHNGAVSFEDFIKGLSILLRGTVQEKLNWAFNLYDINKDGYITKEEMLDIMKAIYDMMGKCTYPVLKEDAPRQHVETFFQKMDKNKDGVVTIDEFIESCQKDENIMRSMQLFENVI
As to B3, the binding entry in assay [1] and in assay [2] was “binds” each time.

B4: Slc25a4 (protein, UniProt Q05962 1-298)
chain: MGDQALSFLKDFLAGGIAAAVSKTAVAPIERVKLLLQVQHASKQISAEKQYKGIIDCVVRIPKEQGFLSFWRGNLANVIRYFPTQALNFAFKDKYKQIFLGGVDRHKQFWRYFAGNLASGGAAGATSLCFVYPLDFARTRLAADVGKGSSQREFNGLGDCLTKIFKSDGLKGLYQGFSVSVQGIIIYRAAYFGVYDTAKGMLPDPKNVHIIVSWMIAQSVTAVAGLVSYPFDTVRRRMMMQSGRKGADIMYTGTVDCWRKIAKDEGRKAFFKGAWSNVLRGMGGAFVLVLYDEIKKYV
Regarding B4, the binding result in assay [1] and in assay [2] was “binds” throughout.

B5: Mybbp1a (protein, UniProt O35821 1-1344)
chain: MAEMKSPTKAEPASPAEAPQGDRRSLLEHSREFLDFFWDIAKPDQETRLRATEKLLEYLRTRPSDSEMKYALKRLITGLGVGREAARPCYSLALAQLLQSFEDIQLCDILGQIQEKYNLQAMNKAMMRPTLFANLFGVLALFQSGRLVKDKEALMKCVRLLKILSHHYNHLQGQPVKALVDILSEVPESMFQEILPKVLKGDMKVILSSPKYLELFLLARQRVPAELESLVGSVDLFSEDNIPSLVNILKVAANSVKKEQKLPDVALNLLRLALQENKFERFWKEVLEEGLLKKPSYTSSYMCFRLLGASLPLLSDEQLQLVMRGDLIRHFGEHMVVSKSQNPLRFIPEISAYVGTFLEGCQDDPKRQFTVMVAFTAITNQGLPVMPTFWRVTRFLNTEALQNYVTWLRDMFLQPDLDSLVDFSTANQKRVQVASLNVPERTVFRLRKWIIHRLVSLVDHLHLEKDEAVVEQIARFCLFHAFFKTKKATPQIPETKQHFSFPLEDGNRGVIVSAFFSLLQTLSVKFRQTPDLAENGKPWTYRLVQLADMLLKHNRNVANVTPLTAQQRQAWDQMMSTLKELEAQSSETRAIAFQHLLLLVGLHLFKSPAESCDVLGDIQTCIKKSMEQNLRRSRSRAKASQEPVWVEVMVEILLSLLAQPSNLMRQVVRSVFGHVCSHLTPRGLQLILAVLNPETNEDEEDNVVVTDTDEKQLKHGEDADSDSEDSKNSESDVDSEDGEESEEEDRDKDVDPGFRQQLMEVLQAGNALGGEEEEEEELGDEAMMALDQNLASLFAEQKMRIQARHEEKNKLQKEKQLRRDFQIRALDLIEVLVTKQPEHPLILELLEPLLNIIQRSMRSRGSTKQEQDLLHKTARIFMHHLCRARHYCHEVEPGAEALHAQVERLVQQAGNQADASVALYYFNASLYLLRVLKGNTTKRYQDGQKLEGADIKSEPKDSEVQTTSCLDLDFVTRVYSASLESLLTKRNSPLTIPMFLDLFSRYPVICKNLLPIVVQHVAGSSRPRHQAQACLLLQKALSARELRVCFEDPEWEQLISQVLGKTTQTLQTLGEAQSKGEHQRELSILELLNTVFRIVNHEKLSVDLTAFLGMLQGKQQKLQQNLQQGNHSSGSSRLYDLYWQAMNLLGVQRPKSEKKNVKDIPSDSQSPISTKRKKKGFLPETKKRKKLKSEGTTSEKKAASQQDAVTEGAMPAATGKDQPPSTGKKRRKRVKANTPSQVNGVTVAKSPAPNNPTLSPSTPPAKTPKVQKKKEKLSQVNGSTPVSPVEPESKKHQKALSTKEVKRRSSQSALPKKRARLSLVSRSPSLLQSGIRKRRVARRRVQTP
Take B5: the binding entry in assay [1] and in assay [2] was “binds” in each case.

B6: Phb (protein, UniProt P67779 1-272)
chain: MAAKVFESIGKFGLALAVAGGVVNSALYNVDAGHRAVIFDRFRGVQDIVVGEGTHFLIPWVQKPIIFDCRSRPRNVPVITGSKDLQNVNITLRILFRPVASQLPRIYTSIGEDYDERVLPSITTEILKSVVARFDAGELITQRELVSRQVSDDLTERAATFGLILDDVSLTHLTFGKEFTEAVEAKQVAQQEAERARFVVEKAEQQKKAAIISAEGDSKAAELIANSLATAGDGLIELRKLEAAEDIAYQLSRSRNITYLPAGQSVLLQLPQ
As to B6, the binding result in assay [1] and in assay [2] was “binds” throughout.

B7: Atp5c1 (protein, UniProt P35435 1-273)
chain: ATLKDITRRLKSIKNIQKITKSMKMVAAAKYARAERELKPARVYGTGSLALYEKAEIKGPEDKKKHLIIGVSSDRGLCGAIHSSVAKQMKNDMAALTAAGKEVMIVGIGEKIKSILYRTHSDQFLVSFKDVGRKPPTFGDASVIALELLNSGYEFDEGSIIFNQFKSVISYKTEEKPIFSFSTVVAAENMSIYDDIDADVLQNYQEYNLANIIYYSLKESTTSEQSARMTAMDNASKNASDMIDKLTLTFNRTRQAVITKELIEIISGAAALD
In the case of B7, the binding result in assay [1] and in assay [2] was “binds” throughout.

B8: Atp5o (protein, UniProt Q06647 24-213)
chain: FSKLVRPPVQVYGIEGRYATALYSAASKQKRLDQVEKELLRVGQLLKDPKVSLAVLNPYIKRSIKVKSLKDITTKEKFSPLTANLMNLLAENGRLGNTQGVISAFSTIMSVHRGEVPCTVTTAFPLDEAVLSELKTVLNSFLSKGQILNLEVKTDPSIMGGMIVRIGEKYVDMSAKSKIQKLSKAMRDLL
As for B8, the binding entry in assay [1] and in assay [2] was “binds” throughout.

B9: KChIP3 (protein, UniProt Q9JM47 1-256)
chain: MQRTKEAMKASDGSLLGDPGRIPLSKREGIKWQRPRFTRQALMRCCLIKWILSSAAPQGSDSSDSELELSTVRHQPEGLDQLQAQTKFTKKELQSLYRGFKNECPTGLVDEDTFKLIYSQFFPQGDATTYAHFLFNAFDADGNGAIHFEDFVVGLSILLRGTVHEKLKWAFNLYDINKDGYITKEEMLAIMKSIYDMMGRHTYPILREDAPLEHVERFFQKMDRNQDGVVTIDEFLETCQKDENIMSSMQLFENVI
Turning to B9, the binding result in assay [1] and in assay [2] was “binds” throughout.

B10: Sf3b2 (protein, UniProt D3ZMS1 1-878)
chain: MAAEHPEPPKGELQLPPPPPPGHYGAWAAQELQAKLAEIGAPIQGSREELVERLQTYTRQTGIVLNRPVLRGEDGDKAAPPPMSAQLSGIPMPPPPLGLPPLQPPPPPPPPPPGLGLGFPMAHPPNLGPPPPLRVGEPVALSEEERLKLAQQQAALLMQQEERAKQAAVLMEQERQQEIAKMGTAVPRPPQDMGQLGVRTPLGPRVAAPVGPVVPTPTVLPMGAPVPRPRGPPPPPGDENREMDDPSVGPKIPQALEKILQLKESRQEEMNSQQEEEEMETDTRSSLGQSASETEEDTVSTSKKEKNRKRRNRKKKKKPQRVRAASSESSGDREKDSARSRGSDSPAADVEIEYVTEEPEIYEPNFIFFKRIFEAFKLTDDVKKEKEKEPEKLDKMENSAVPKKKGFEEEHKDSDDDSSDDEQEKKPEAPKLSKKKLRRMNRFTVAELKQLVARPDVVEMHDVTAQDPKLLVHLKATRNSVPVPRHWCFKRKYLQGKRGIEKPPFELPDFIKRTGIQEMREALQEKEEQKTMKSKMREKVRPKMGKIDIDYQKLHDAFFKWQTKPKLTIHGDLYYEGKEFETRLKEKKPGDLSDELRISLGMPVGPNAHKVPPPWLIAMQRYGPPPSYPNLKIPGLNSPIPESCSFGYHAGGWGKPPVDETGKPLYGDVFGTNAAEFQTKTEEEEIDRTPWGELEPSDEESSEEEEEEESDEDKPDETGFITPADSGLITPGGFSSVPAGMETPELIELRKKKIEEAMDGSETPQLFTVLPEKRTATVGGAMMGSTHIYDMSTVMSRKGPAPELQGVEVALAPEELELDPMAMTQKYEEHVREQQAQVEKEDFSDMVAEHAAKQKQKKRKAQPQDSRGGSKKYKEFKF
Take B10: the binding result in assay [1] and in assay [2] was “binds” throughout.

B11: Pfkm (protein, UniProt P47858 1-780)
chain: MTHEEHHEAKTLGIGKAIAVLTSGGDAQGMNATVRAVVRVGIFTGLRVFFVHEGYQGLVDGGEHIREATWESVSMMLQLGGTVIGSARCKDFREREGRLRAAHNLVKRGITNLCVIGGDGSLTGADTFRSEWSDLLNDLQKDGKITAEERTKSSYLNIVFLVGSIDNDFCGTDMTIGTDSALHRIVEIVDAITTTAQSHQRTFVLEVMGRHCGYLALVTSLSCGADWVFIPECPPDDDWEEHLCRRLSETRTRGSRLNIIIVAEGAIDKNGKPITSEDIKNLVVKRLGYDTRVTVLGHVQRGGTPSAFDRILGSRMGVEAVMALLEGTPDTPACVVSLSGNTAVRLPLMECVQVTKDVTKAMDEKRFDEAIKLRGRSFMNNWEVYKLLAHVRPPVSKGGLHTVAVMNVGAPAAGMNAAVRSTVRIGLIQGNRVLVVHDGFEGLAKGQIEEAGWSYVGGWTGQGGSKLGTKRTLPKKNLEQISANITKYNIQGLVIIGGFEAYTGGLELMEGRKQFDELCIPFVVIPATVSNNVPGSDFSIGADTALNTICTTCDRIKQSAAGTKRRVFIIETMGGYCGYLATMAGLAAGADAAYIFEEPFTIRDLQVNVEHLVQKMKTTVKRGLVLRNEKCNENYTTDFIFNLYSEEGKGIFDSRKNVLGHMQQGGNPTPFDRNFATKMGAKATNWMSGKIKESYRNGRIFANTPDSGCVLGMRKRALVFQPVTELKDQTDFEHRIPKEQWWLKLRPILKILAKYEIDLDTSDHAHLEHISRKRSGEAAV
In the case of B11, the binding result in assay [1] and in assay [2] was “binds” throughout.

The values above are taken from publication PMC9788671.
